This experiment has as its target GFP-tagged human YAP (pEGFP C3-YAP2) (human) (UniProt P46937). The experiment can be described thus: affinity purification with mass spectrometry; GFP-Trap-M beads, lysate of HEK293T cells transfected with GFP-YAP; lysis buffer 10 mM Tris-HCl pH 7.5, 150 mM NaCl, 0.5% NP-40, 0.5 mM EDTA; three washes; SDS-PAGE, in-gel trypsin digestion, Q-Exactive, MaxQuant iBAQ.

Protein sequences, listed by entry. Tags and fused reporters are not part of them.
UniProt Q9NR12: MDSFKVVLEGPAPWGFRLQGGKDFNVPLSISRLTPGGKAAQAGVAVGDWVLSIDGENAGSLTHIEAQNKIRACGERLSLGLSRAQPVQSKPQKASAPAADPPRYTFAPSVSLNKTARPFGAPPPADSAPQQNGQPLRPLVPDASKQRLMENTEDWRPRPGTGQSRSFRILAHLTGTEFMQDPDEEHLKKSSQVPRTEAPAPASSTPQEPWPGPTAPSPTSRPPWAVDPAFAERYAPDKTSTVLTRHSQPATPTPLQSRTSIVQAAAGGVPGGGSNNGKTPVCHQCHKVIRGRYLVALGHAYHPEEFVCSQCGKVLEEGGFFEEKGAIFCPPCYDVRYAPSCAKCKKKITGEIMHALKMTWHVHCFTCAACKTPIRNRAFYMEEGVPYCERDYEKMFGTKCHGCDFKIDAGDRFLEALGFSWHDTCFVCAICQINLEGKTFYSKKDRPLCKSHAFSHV

No constants are given. Whether binding was seen depends on the method and setting. Binding seen in cells or lysates may run through a third protein. Here binding means that the protein was enriched with, or labelled near, the bait; the list need not be complete.

Regarding “PDLIM7 (Enigma) in HEK293T lysate (from UniProt Q9NR12 1-457)”, the binding result is “binds”.

The record behind these values is paper PMC6262774.
